Source: PubChem BioAssay AID602196 (INSERM, 2012)
Screen: 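Modifiers of cisplatin sensitivity in A549 cells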. Cell system: human A549 lung cancer cells. Reagents: siRNA pair against human genes. Time to read-out: 48 h transfection before cisplatin; time from cisplatin to read-out not stated. Challenge: cisplatin at a dose killing half of control-siRNA cells; exact dose and duration not given. Read-out: 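Cisplatin cell death as a shift from the 50% death seen with control siRNA; siRNAs toxic or growth-blocking alone scored 0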. Direction: two-siRNA summed score (-2 to +2): higher = both siRNAs protect from cisplatin killing; -2 means both sensitise. Rule for the call: 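Each siRNA scores 0 if harmful alone by LDH or WST-1, otherwise +1 if it reduces and -1 if it increases cisplatin killing; a gene is active when both siRNAs agree (sum +2 or -2)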. Calls: active = both siRNAs shift cisplatin killing the same way; inactive = no consistent shift, or siRNA harmful alone.
Shown is an unselected part of about 23,000 reagents tested. 455 of them (2%) were called active. 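Active includes both protection and sensitisation; some change values fall well beyond the stated -50 to +50 range.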 Not all columns of the deposit are shown. Not given: the amount of reagent.

GLI3 [SID131505381] scored two-siRNA summed score (-2 to +2) = 0; inactive.
With knock-down of FAM47B [SID131509994] the results were two-siRNA summed score (-2 to +2) = 0; inactive.
After knock-down of PFKFB4 [SID131513109], the screen gave two-siRNA summed score (-2 to +2) = 0; inactive.
For LOC390975 [SID131505713] the deposit lists two-siRNA summed score (-2 to +2) = 0; inactive.
FGF16 [SID131504078] showed two-siRNA summed score (-2 to +2) = 0; inactive.
Depletion of SLC25A31 [SID131513975] resulted in: two-siRNA summed score (-2 to +2) = 0; inactive.
Depletion of MAPRE1 [SID131503356] gave: two-siRNA summed score (-2 to +2) = 0; inactive.
Silencing of LOC401934 [SID131519847] resulted in: two-siRNA summed score (-2 to +2) = 1; inactive.
Silencing of RBM15 [SID131504110] came out at: two-siRNA summed score (-2 to +2) = 0; inactive.

Laid out differently: results already given.
| Target gene | PubChem SID | two-siRNA summed score (-2 to +2) | Outcome |
| --- | --- | --- | --- |
| FGF16 | SID131504078 | 0 | inactive |
| SLC25A31 | SID131513975 | 0 | inactive |

Continued:
KLHL24 [SID131512052] gave two-siRNA summed score (-2 to +2) = 0; inactive.
With knock-down of ANO2 [SID131507668] the results were two-siRNA summed score (-2 to +2) = 0; inactive.
For LOC340527 [SID131504115] the deposit lists two-siRNA summed score (-2 to +2) = 0; inactive.
Knock-down of MEIOSIN [SID131518344] gave: two-siRNA summed score (-2 to +2) = 0; inactive.
Knock-down of RAB11FIP3 [SID131517221] came out at: two-siRNA summed score (-2 to +2) = 0; inactive.
Knock-down of MRFAP1 [SID131503837] gave: two-siRNA summed score (-2 to +2) = 0; inactive.
After knock-down of CDCA4 [SID131512533], the screen gave two-siRNA summed score (-2 to +2) = 0; inactive.
With knock-down of ARID4A [SID131500997], the record shows two-siRNA summed score (-2 to +2) = -1; inactive.
For LOC400472 [SID131509340], the entry reads two-siRNA summed score (-2 to +2) = 0; inactive.
With knock-down of ZAR1 [SID131501884] the results were two-siRNA summed score (-2 to +2) = -1; inactive.
For TRAF7 [SID131501398], the values are two-siRNA summed score (-2 to +2) = -1; inactive.
With knock-down of H1-3 [SID131503941], the screen gave two-siRNA summed score (-2 to +2) = 0; inactive.
